PubChem BioAssay AID1671190 (National Center for Advancing Translational Sciences (NCATS), 2021)
Several values for one entry are separate records, joined by “and”; a condition that tells them apart may be missing. Identical values can stand only once. Among all 580,000 compounds or so, about 6,100 (1.1%) were called active. The inconclusive results got no clear call from the source; some entries with a clear call stand among them for comparison. Calls follow the shape of the dose curve; as a rule, active = well fitted inhibition curve with a large enough effect; inconclusive = small, poorly fitted or top-dose-only effect, or another doubt; inactive = no such curve, though single readings can be large or run the other way. Potencies of inconclusive entries are doubtful fits and often do not repeat.

The chains behind the UniProt entries cited, without tags or fusion partners.
UniProt P18054, whole entry, looked up: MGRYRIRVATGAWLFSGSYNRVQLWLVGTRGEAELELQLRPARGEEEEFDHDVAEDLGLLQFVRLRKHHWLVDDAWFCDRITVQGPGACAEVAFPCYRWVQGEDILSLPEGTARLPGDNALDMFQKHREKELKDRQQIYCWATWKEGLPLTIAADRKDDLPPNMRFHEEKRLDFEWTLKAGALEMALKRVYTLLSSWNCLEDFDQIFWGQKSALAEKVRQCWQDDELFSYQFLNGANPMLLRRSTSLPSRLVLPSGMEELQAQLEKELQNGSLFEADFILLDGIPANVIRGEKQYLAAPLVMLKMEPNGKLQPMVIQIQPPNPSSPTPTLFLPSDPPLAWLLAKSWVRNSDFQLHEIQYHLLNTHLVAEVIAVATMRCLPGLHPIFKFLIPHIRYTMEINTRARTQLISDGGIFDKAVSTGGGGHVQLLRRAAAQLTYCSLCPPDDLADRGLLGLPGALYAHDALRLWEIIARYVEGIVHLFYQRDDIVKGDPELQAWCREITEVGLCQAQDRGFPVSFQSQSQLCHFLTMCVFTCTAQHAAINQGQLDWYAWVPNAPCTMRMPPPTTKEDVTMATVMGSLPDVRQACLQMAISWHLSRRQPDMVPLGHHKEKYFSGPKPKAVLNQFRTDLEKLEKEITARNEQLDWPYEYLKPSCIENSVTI

target: Polyunsaturated fatty acid lipoxygenase ALOX12 (Homo sapiens) (UniProt P18054); assay: Primary qHTS assay for inhibitors of human arachidonate 12S-lipoxygenase (ALOX12): Round 2; details: purified 12hLO, xylenol orange hydroperoxide absorbance; activity change, negative = inhibition: at 108 µM (top of the series) unless noted
In short: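 Hydroperoxide product was detected by ferrous iron/xylenol orange as the 573 to 405 nm absorbance ratio. Arachidonic acid at 40 uM (final) was turned over for 30 min at room temperature by 150 nM human 12hLO, pH 7.0 Hepes buffer, after 15 min compound preincubation.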
% is scaled to controls: 0 for no effect and ±100 for the full control effect; potency is read from the fitted curve at half-maximal effect.

Q: For COc1cc2c(cc1NC(=O)Cc1ccccc1C)oc1ccccc12, which Potency is on record?
A: inactive

Q: Which Potency does the source give for C#CCCC[C@@H](/C=C/C(=O)OCC)NC(=O)C(F)(F)F here?
A: inactive

Q: COc1cccc(CC(=O)N2CCCC(CN3CCCC3)CC2)c1 (stereo not given) was tested. Which Potency did it give?
A: inactive

Q: For CCCc1cc(=O)oc2c(C)c(OCc3nn[nH]n3)ccc12, which Potency is on record?
A: inconclusive: 89.1 µM [inhibitor, partial curve, poor fit]

Q: Clc1ccc(-n2ncc3c(NCc4ccco4)ncnc32)cc1 was tested. Which Potency did it give?
A: inconclusive: 56.2 µM [inhibitor, partial curve, poor fit]

Q: How did the Potency turn out when Cc1ccccc1N=C1NC(=O)CC(c2ccccc2)S1 (stereo not given) was run?
A: inactive

Q: How did the Potency turn out when C/C(=N\NS(=O)(=O)c1c(C)cc(C)cc1C)c1ccncc1 was run?
A: inconclusive: 44.7 µM [inhibitor, partial curve, poor fit]

Q: COC(=O)[C@]12CCCCC=C1N(CCC1=CCCCC1)C(=O)[C@H](CC(=O)NCc1cccc3ccccc13)C2 was tested. Which Potency did it give?
A: inconclusive: 141 µM [inhibitor, single point]

Q: With Cc1ccc(S(=O)(=O)N2CCCCC2C(=O)Nc2ccc(N(C)C)cc2)cc1 (stereo not given) as the compound, how does the Potency read?
A: inconclusive: 63.1 µM [inhibitor, partial curve, poor fit]

Q: Which Potency does the source give for CCOC(=O)/C(=N\Nc1cc(Cl)ccc1Cl)N1CCN(C)CC1 here?
A: inconclusive: 56.2 µM [inhibitor, partial curve, poor fit]

Q: Which Potency does the source give for COc1ccc(N2CCN(S(=O)(=O)c3ccc(OC)c(C(=O)N4CCOCC4)c3)CC2)cc1 here?
A: inconclusive: 112 µM [inhibitor, partial curve, poor fit]

Q: O=C(NC(=S)Nc1ccccc1N1CCCC1)c1ccc(F)cc1 was tested. Which Potency did it give?
A: inconclusive: 44.7 µM [inhibitor, partial curve, poor fit]

Q: CN(c1ccc(Cl)c(Cl)c1)C1CNC1 was tested. Which Potency did it give?
A: inconclusive: 4.62 µM [inhibitor, single point]

Q: For CCOc1ccc(CNC(=O)CCn2c(=O)c3cccn3c3cccnc32)cc1, which Potency is on record?
A: inactive

Q: How did the Potency turn out when CCn1c(C(=O)O)c(CC(=O)N(C)c2ccc(OC)cc2OC)c2ccccc21 was run?
A: inconclusive: 35.5 µM [inhibitor, single point]

Q: Which Potency does the source give for CCCC(=O)Nc1ccc(-c2nc(N)sc2C)cc1 here?
A: inconclusive: 6.31 µM [inhibitor, full curve]

Q: How did the Potency turn out when CCOC(=O)/C=C(\C)Sc1cc(=O)oc2ccccc12 was run?
A: inactive

Q: O=C(CSc1nc(=O)n(Cc2ccco2)c2c1CCC2)NCc1ccccc1Cl was tested. Which Potency did it give?
A: inconclusive: 141 µM [inhibitor, partial curve, poor fit]

Q: For CCOc1ccc(N2CC(NC(=O)c3ccc(S(=O)(=O)N4CCOCC4)cc3)CC2=O)cc1 (stereo not given), which Potency is on record?
A: inconclusive: 631 nM [inhibitor, full curve, poor fit] and inconclusive: 39.8 µM [inhibitor, single point]

Q: Cc1cccn2c(=O)c3cc(C#N)c(=NC(=O)c4ccncc4)n(CCCOC(C)C)c3nc12 was tested. Which Potency did it give?
A: inconclusive: 6.31 µM [inhibitor, partial curve, poor fit]

Q: How did the Potency turn out when Nc1nc2cc(S(=O)(=O)N3CCOCC3)ccc2o1 was run?
A: inconclusive: 44.7 µM [inhibitor, partial curve, poor fit]

Q: Which Potency does the source give for Cc1noc(C)c1C(=O)N(C)Cc1ccc2c(c1)OCO2 here?
A: inconclusive: 100 µM [inhibitor, single point]

Q: For Cc1cc(N2CCN(C)CC2)nc2ccc(NC(=O)Nc3ccc(Cl)cc3)cc12, which Potency is on record?
A: inconclusive: 89.1 µM [inhibitor, partial curve, poor fit]

Q: For CCCCCNC(=O)c1ccc2c(=O)[nH]c3c(C(=O)NCC4CCCO4)sc(=S)n3c2c1 (stereo not given), which Potency is on record?
A: inactive

Q: How did the Potency turn out when CCOc1ccc(CNC(=O)c2noc(C)c2Cn2nc(C)cc2C)cc1 was run?
A: inactive

Q: With NC(=O)/C(=C\c1ccc([N+](=O)[O-])o1)c1ccco1 as the compound, how does the Potency read?
A: inconclusive: 44.7 µM [inhibitor, partial curve, poor fit]

Q: How did the Potency turn out when Cc1c(NS(=O)(=O)c2ccc(N=NN(C)C)cc2)c(=O)n(-c2ccccc2)n1C was run?
A: inconclusive: 0.708 µM [inhibitor, full curve, poor fit]

Q: Which Potency does the source give for CC1CCCN(Cc2nc3c(c(=O)n(C)c(=O)n3C)n2Cc2c(F)cccc2Cl)C1 (stereo not given) here?
A: inactive

Q: How did the Potency turn out when COc1ccccc1C(c1nnnn1Cc1ccccc1)N1CCN(C2CCCC2)CC1 (stereo not given) was run?
A: inconclusive: 1.78 µM [inhibitor, full curve, poor fit]

Q: With O=C(NC1CCCc2c1cnn2-c1ccc(F)cc1F)c1c(F)cccc1Cl (stereo not given) as the compound, how does the Potency read?
A: inactive

Q: For O=C(NCc1ccc(F)cc1)c1ccnc(-c2nnc3ccc(Nc4ccccc4)nn23)c1, which Potency is on record?
A: inactive

Q: Which Potency does the source give for O=S(=O)(NCCC1=CCCCC1)c1ccc(F)cc1 here?
A: inconclusive: 4.47 µM [inhibitor, single point]

Q: For CCOc1ccc2c(c1)S/C(=C\c1ccc(Cl)cc1)C(=O)N2, which Potency is on record?
A: inconclusive: 3.16 µM [inhibitor, full curve, poor fit]

Q: With CN(Cc1ccccc1)C(=O)[C@H]1CN(Cc2ccccc2)C[C@H]1C(=O)O as the compound, how does the Potency read?
A: inconclusive: 25.1 µM [inhibitor, full curve]

Q: CCC(C)NC(C(=O)Nc1ccc(Cl)c([N+](=O)[O-])c1)c1ccccc1 (stereo not given) was tested. Which Potency did it give?
A: inconclusive: 1.12 µM [inhibitor, full curve, poor fit]

Q: Which activity change, negative = inhibition does the source give for COC(=O)c1c(SC)nc2ccccc2c1OCc1ccc(C)cc1C here?
A: inconclusive: -34.8% [inhibitor]

Q: Which Potency does the source give for O=C1NC[C@@H](CCCCN2C[C@H](Cc3ccccc3)N(CCc3ccc(O)cc3)C(=O)C2=O)N(CC2CCCCC2)C1=O here?
A: inconclusive: 100 µM [inhibitor, single point]

Q: How did the Potency turn out when O=C(N/N=C/c1ccc[nH]1)c1cccnc1 was run?
A: inconclusive: 7.94 µM [inhibitor, full curve, poor fit]

Q: For CCNC(=O)N1CC2CC(C1)[C@H]1CCCC(=O)N1C2 (stereo not given in full), which Potency is on record?
A: inactive

Q: How did the Potency turn out when Cc1ccccc1C(=O)OCC(=O)Nc1cc(F)cc(F)c1 was run?
A: inconclusive: 44.7 µM [inhibitor, partial curve, poor fit]

Q: With O=C(NCCc1ccccc1)C(=O)NCC(c1cccnc1)N1CCN(c2ccccc2)CC1 (stereo not given) as the compound, how does the Potency read?
A: inactive

Q: For O=C1Nc2cc(C(=O)NCCCN3CCCC3)ccc2S/C1=C\c1ccccc1, which Potency is on record?
A: inconclusive: 44.7 µM [inhibitor, partial curve, poor fit]

Q: Which Potency does the source give for CN(Cc1cnn(Cc2ccccc2)c1)C(=O)CN=C1NS(=O)(=O)c2ccccc21 here?
A: inconclusive: 126 µM [inhibitor, single point]

Q: For CC(NS(=O)(=O)c1cccc(Cl)c1)C(=O)Nc1ccc(-c2nc3ccccc3s2)cc1 (stereo not given), which Potency is on record?
A: inactive

Q: Which Potency does the source give for Cc1nc(-c2ccccc2)nc2sc3c(=O)[nH]cnc3c12 here?
A: inconclusive: 39.8 µM [inhibitor, partial curve, poor fit]

Q: O=S(=O)(CCN1CCC2(CC1)OCCO2)c1ccccc1 was tested. Which Potency did it give?
A: inactive

Q: Which Potency does the source give for COc1cc(-c2ccc(C(F)(F)F)cn2)cc2c1OCCN(S(=O)(=O)C[C@]13CC[C@H](CC1=O)C3(C)C)C2 here?
A: inactive

Q: For Cc1cccc(CNc2ncnc3ccc(-c4ccccc4C#N)cc23)c1, which Potency is on record?
A: inactive

Q: Which Potency does the source give for Cc1cc(Cl)cc(Br)c1OCCCCn1cncn1 here?
A: inconclusive: 0.501 µM [inhibitor, full curve, poor fit]

Q: How did the Potency turn out when O=C(NCCc1ccc(Cl)cc1)c1ccc2c(=O)[nH]c3c(C(=O)NCC4CCCO4)sc(=S)n3c2c1 (stereo not given) was run?
A: active: 50.1 µM

Q: Cc1cc2oc(=O)cc(CNc3ccccc3F)c2cc1O was tested. Which Potency did it give?
A: inconclusive: 0.794 µM [inhibitor, full curve, poor fit]

Q: How did the Potency turn out when O=C(Nc1ccc2oc(-c3cccnc3)nc2c1)c1ccccc1F was run?
A: inconclusive: 126 µM [inhibitor, single point]

Q: How did the Potency turn out when CCN(CC)C(=S)SC(C(=O)NC(N)=O)C(C)C (stereo not given) was run?
A: inconclusive: 22.4 µM [inhibitor, partial curve, poor fit]

Q: For CCN(CC(=O)NCc1ccc(Cl)cc1)C(=O)CSc1cc(C)ccc1C, which Potency is on record?
A: inconclusive: 0.251 µM [inhibitor, full curve, poor fit]

Q: Which Potency does the source give for CCOc1cccc(OCCNC2CCCC2)c1 here?
A: inconclusive: 1.12 µM [inhibitor, full curve, poor fit]

Q: For COC(=O)[C@@]12C[C@@H](CC(=O)N3CCN(C(=O)C4CC4)CC3)C(=O)N(Cc3cccc4ccccc34)C1=CCC(C)(C)C2, which Potency is on record?
A: inconclusive: 112 µM [inhibitor, single point]

Q: CC1CC(C)CN(CC(C)(C)NS(=O)(=O)c2ccccc2)C1 (stereo not given) was tested. Which Potency did it give?
A: inconclusive: 0.708 µM [inhibitor, full curve, poor fit]

Q: COc1ccc(N(CC(=O)N/N=C/c2ccco2)S(=O)(=O)c2ccccc2)cc1 was tested. Which Potency did it give?
A: inconclusive: 44.7 µM [inhibitor, partial curve, poor fit]

Q: Which Potency does the source give for CCN(CC)CCNc1nc2c(c(=O)[nH]c(=O)n2C)n1Cc1ccc(Cl)cc1 here?
A: inconclusive: 44.7 µM [inhibitor, partial curve, poor fit]

Q: With COC1CCCN(c2ncccc2-c2cc(-c3ccccc3)nc3c(C)noc23)C1 (stereo not given) as the compound, how does the Potency read?
A: inconclusive: 35.5 µM [inhibitor, full curve]

Q: O=S(=O)(c1ccc(Br)cc1F)N1CCC(O)CC1 was tested. Which Potency did it give?
A: inconclusive: 3.55 µM [inhibitor, single point]

Q: For COc1cccc(-c2ccc(SCC(=O)NCCc3ccccc3)nn2)c1, which Potency is on record?
A: inactive

Q: With Cc1ccc2c(c1)[C@H]1[C@H](CO2)[C@H](c2ccccc2)[C@]2(C)C(=O)Nc3cc(F)ccc3C(=O)N12 as the compound, how does the Potency read?
A: inactive

Q: Cc1cccc(NC(=O)CCS(=O)(=O)c2cc3c(cc2Cl)NC(=O)CO3)c1 was tested. Which Potency did it give?
A: inactive

Q: How did the Potency turn out when O=C(CSc1nc2cc(Cl)ccc2c(=O)n1Cc1ccccc1)N1CCCCC1 was run?
A: inconclusive: 50.1 µM [inhibitor, partial curve, poor fit]
